Results deposited as PubChem BioAssay AID1259424 (University of Nebraska Medical Center, 2018).

- Test: 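Find knockdowns that reproduce the expression shifts seen after KSR1 loss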 (primary screen)
- Cell system: human HCT116 colon cancer cells
- Knock-down reagent: siRNA pool against human genes, 50 nM
- Measured: 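Six signature mRNAs by branched-DNA multiplex assay, scaled to two housekeeping genes and non-targeting median, log2; matched to mean KSR1 knockdown profile by Pearson correlation and euclidean distance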
- Direction: mean correlation with KSR1 profile: higher = expression change more like KSR1 knockdown
The deposit covers about 14,000 reagents; this is an unselected part. 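Higher correlation or smaller distance means closer resemblance to KSR1 loss; control wells, including KSR1 knockdowns, recur on many plates.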 Not all columns of the deposit are shown. The record does not give: the time to read-out.

ZC3H13 scored mean correlation with KSR1 profile -0.246.
For GPNMB the deposit lists mean correlation with KSR1 profile -0.281.
Against NAPG the deposit lists mean correlation with KSR1 profile -0.607.
DGCR6L scored mean correlation with KSR1 profile -0.229.

Reformatted: 2 of the entries above
| Gene | mean correlation with KSR1 profile |
| --- | --- |
| NAPG | -0.607 |
| DGCR6L | -0.229 |

The results go on:
MT-CO2 showed mean correlation with KSR1 profile 0.372.
After knock-down of SLC45A2, the record shows mean correlation with KSR1 profile -0.124.
GFI1 scored mean correlation with KSR1 profile -0.371.
For POC1A, the entry reads mean correlation with KSR1 profile 0.413.
For PILRA the deposit lists mean correlation with KSR1 profile 0.338.
Depletion of RHOBTB3 gave: mean correlation with KSR1 profile 0.0631.
DONSON showed mean correlation with KSR1 profile -0.324.
Depletion of UNC13B came out at: mean correlation with KSR1 profile -0.703.
